The values below come from article PMC8458463.

The chains behind the UniProt entries cited, without tags or fusion partners. Residues count along the entry.
UniProt O43474, 418-513: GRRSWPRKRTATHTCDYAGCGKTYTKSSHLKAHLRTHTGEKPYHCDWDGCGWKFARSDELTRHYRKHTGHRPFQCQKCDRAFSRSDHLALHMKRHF
UniProt O43474, 418-513 E476D/R501A: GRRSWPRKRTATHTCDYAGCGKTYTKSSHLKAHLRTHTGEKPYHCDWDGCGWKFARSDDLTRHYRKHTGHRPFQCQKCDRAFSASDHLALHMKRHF

The target in series [1] is KLF4 DBD (human) (UniProt O43474). The experiment in a line: smFRET. Conditions: 1 uM DBD, 100 pM A488-NANK, 500 pM A594-NANK, DNA bridging; 5' amino-C6; recombinant protein; residues 418-513; protein details: Nano-His6-TEV tag cleaved.
The target is the same in series [2]. The experiment in a line: EMSA. Conditions: Zn2+, non-cognate, EMSA interaction said to correlate with LLPS potential, SBE lowest; EMSA: 20 mM Tris pH 8, 50 mM NaCl, 5% glycerol, 0.01 mg/ml BSA, 0.1 mM DTT, 0.05 mM TCEP; gel run at 4 C; protein refolded with 3.3 eq ZnSO4; recombinant protein; residues 418-513; protein details: Nano-His6-TEV tag cleaved.
Series [3] addresses KLF4 DBD E476D/R501A (human) (UniProt O43474). Briefly: EMSA. Conditions: Zn2+, weaker than wild type, EMSA: 20 mM Tris pH 8, 50 mM NaCl, 5% glycerol, 0.01 mg/ml BSA, 0.1 mM DTT, 0.05 mM TCEP, gel run at 4 C, protein refolded with 3.3 eq ZnSO4, recombinant protein, residues 418-513, protein details: Nano-His6-TEV tag cleaved.

For some of these results: Weaker means in comparison with the reference protein, sequence or condition of that experiment. For some of these results: Construct, isoform or probe ends are uncertain for at least one entry. For some of these results: At least one verdict rests on a figure or table, not on a statement of the authors.

Consider “AGGGGGTGTGCCCGCCAGGAGGGGTGGGTC (double strand) [A488-NANK / A594-NANK]”, for which the binding result with KLF4 DBD (human) [1] was “binds”.

For AATCAGTCTAGACATAC (double strand) [SBE], in the series with KLF4 DBD (human) [2], the binding result is given as “binds more weakly”.

Consider “AGGGGGTGTGCCCGCCAGGAGGGGTGGGTC (double strand) [NANK]”, for which the binding result in series [3] is listed as “binds more weakly”.

In the case of “AGGGGGTGTGCCCGCCAGGAGGGGTGGGTC (double strand) [NANKm]”, the binding result in series [3] (5-methyl-dC at position 13 of strand 1 (CpG in KLFB), complement strand methylation not stated) is reported as “binds more weakly”.
